Assay results reported in US20240034757A1.
Results are given in words; binding and its absence hold for the method and conditions named.

Amino acid sequences for entries named in this document (tags omitted). A change or cut given only in a name is not applied to a line headed by its entry. Residues count along the entry.
UniProt O43927, residues 23-109: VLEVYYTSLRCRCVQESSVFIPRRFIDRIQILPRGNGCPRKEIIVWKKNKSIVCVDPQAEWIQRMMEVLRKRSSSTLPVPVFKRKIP
UniProt P10145, residues 28-99: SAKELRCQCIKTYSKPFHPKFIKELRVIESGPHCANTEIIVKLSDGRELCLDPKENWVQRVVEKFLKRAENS
UniProt P80162, residues 38-114: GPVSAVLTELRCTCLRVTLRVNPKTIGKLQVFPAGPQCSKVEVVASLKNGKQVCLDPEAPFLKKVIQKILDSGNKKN
UniProt O00585, residues 24-134: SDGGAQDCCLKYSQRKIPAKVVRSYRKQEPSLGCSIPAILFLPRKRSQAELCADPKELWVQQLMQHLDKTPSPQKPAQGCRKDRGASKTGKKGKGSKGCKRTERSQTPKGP
UniProt Q92583, residues 24-94: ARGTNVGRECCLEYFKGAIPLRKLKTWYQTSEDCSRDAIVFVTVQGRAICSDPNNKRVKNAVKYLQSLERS
UniProt Q99731, residues 22-98: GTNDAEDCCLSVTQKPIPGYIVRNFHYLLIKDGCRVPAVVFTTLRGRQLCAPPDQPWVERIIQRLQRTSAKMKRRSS
UniProt Q9NRJ3, residues 23-127: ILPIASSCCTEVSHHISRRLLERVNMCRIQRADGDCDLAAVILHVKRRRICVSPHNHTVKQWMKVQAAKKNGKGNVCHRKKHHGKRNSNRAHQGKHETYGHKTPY
UniProt O00175, residues 27-104: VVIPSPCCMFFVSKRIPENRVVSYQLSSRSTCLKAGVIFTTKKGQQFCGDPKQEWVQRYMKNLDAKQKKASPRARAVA
UniProt P19876, residues 35-107: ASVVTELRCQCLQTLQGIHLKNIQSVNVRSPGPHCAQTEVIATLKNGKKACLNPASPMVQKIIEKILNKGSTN
UniProt O00626, residues 25-93: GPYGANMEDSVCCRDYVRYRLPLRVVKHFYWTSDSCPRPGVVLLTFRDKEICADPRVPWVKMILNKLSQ
UniProt P48061, residues 22-89: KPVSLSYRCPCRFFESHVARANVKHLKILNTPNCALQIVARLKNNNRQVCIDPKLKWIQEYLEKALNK
UniProt P02778, residues 22-98: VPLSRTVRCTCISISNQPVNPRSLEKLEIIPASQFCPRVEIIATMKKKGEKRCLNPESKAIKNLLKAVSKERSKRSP
UniProt Q9Y4X3, residues 25-112: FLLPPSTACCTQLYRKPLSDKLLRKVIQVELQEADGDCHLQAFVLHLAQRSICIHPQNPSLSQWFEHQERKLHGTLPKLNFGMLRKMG
UniProt P78556, residues 27-96: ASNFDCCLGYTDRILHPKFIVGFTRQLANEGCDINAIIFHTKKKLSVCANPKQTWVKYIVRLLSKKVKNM
UniProt P09341, residues 35-107: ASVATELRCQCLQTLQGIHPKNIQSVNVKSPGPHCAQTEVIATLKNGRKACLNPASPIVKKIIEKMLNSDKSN
UniProt P42830, residues 41-114: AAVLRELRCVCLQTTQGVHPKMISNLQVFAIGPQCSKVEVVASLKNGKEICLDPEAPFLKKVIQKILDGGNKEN
UniProt O95715, residues 35-111: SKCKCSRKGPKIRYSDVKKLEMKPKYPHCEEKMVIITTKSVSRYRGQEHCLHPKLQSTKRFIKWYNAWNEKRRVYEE
UniProt P02776, residues 32-101: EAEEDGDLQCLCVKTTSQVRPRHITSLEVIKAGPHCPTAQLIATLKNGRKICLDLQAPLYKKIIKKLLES
UniProt P78423, residues 25-100: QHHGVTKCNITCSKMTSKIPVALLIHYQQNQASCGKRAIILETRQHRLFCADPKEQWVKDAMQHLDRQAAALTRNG
UniProt P02775, residues 59-128: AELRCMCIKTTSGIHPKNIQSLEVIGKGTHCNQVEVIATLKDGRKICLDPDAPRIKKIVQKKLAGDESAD
UniProt Q07325, residues 23-125: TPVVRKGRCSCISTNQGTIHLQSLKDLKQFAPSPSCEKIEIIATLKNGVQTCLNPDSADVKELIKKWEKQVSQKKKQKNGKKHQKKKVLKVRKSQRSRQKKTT
UniProt P19875, residues 35-107: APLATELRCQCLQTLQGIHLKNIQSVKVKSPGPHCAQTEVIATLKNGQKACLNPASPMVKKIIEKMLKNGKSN
UniProt O14625, residues 22-94: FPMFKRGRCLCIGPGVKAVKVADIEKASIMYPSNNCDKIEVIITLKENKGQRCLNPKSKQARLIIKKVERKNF
UniProt L7MC74: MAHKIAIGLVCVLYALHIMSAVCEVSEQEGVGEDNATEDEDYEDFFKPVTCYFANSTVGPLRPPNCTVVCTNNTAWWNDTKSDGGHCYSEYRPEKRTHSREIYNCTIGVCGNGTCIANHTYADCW

Key:
CXCL13_HUMAN (human) = CXCL13_HUMAN (human) (UniProt O43927); experiment: BLI, empty cell the 12th table, row 54, column 8
CXCL8_HUMAN (human) = CXCL8_HUMAN (human) (UniProt P10145); experiment: BLI, empty cell the 12th table, row 49, column 8
CXCL6_HUMAN (human) = CXCL6_HUMAN (human) (UniProt P80162); experiment: BLI, empty cell the 12th table, row 47, column 8
CCL21_HUMAN (human) = CCL21_HUMAN (human) (UniProt O00585); experiment: BLI, empty cell the 12th table, row 32, column 8
CCL17_HUMAN (human) = CCL17_HUMAN (human) (UniProt Q92583); experiment: BLI, empty cell the 12th table, row 27, column 8
CCL19_HUMAN (human) = CCL19_HUMAN (human) (UniProt Q99731); experiment: BLI, empty cell the 12th table, row 29, column 8
CCL28_HUMAN (human) = CCL28_HUMAN (human) (UniProt Q9NRJ3); experiment: BLI, empty cell the 12th table, row 40, column 8
CCL24_HUMAN (human) = CCL24_HUMAN (human) (UniProt O00175); experiment: BLI, empty cell the 12th table, row 35, column 8
CXCL3_HUMAN (human) = CXCL3_HUMAN (human) (UniProt P19876); experiment: BLI, empty cell the 12th table, row 44, column 8
CCL22_HUMAN (human) = CCL22_HUMAN (human) (UniProt O00626); experiment: BLI, empty cell the 12th table, row 33, column 8
CXCL12_HUMAN (human) = CXCL12_HUMAN (human) (UniProt P48061); experiment: BLI, empty cell the 12th table, row 53, column 8
CXCL10_HUMAN (human) = CXCL10_HUMAN (human) (UniProt P02778); experiment: BLI, empty cell the 12th table, row 51, column 8
XCL1_HUMAN (human) = biological target: T1, XCL1_HUMAN (human) (UniProt P47992); experiment: BLI, empty cell the 12th table, row 59, column 8
T1 sequence: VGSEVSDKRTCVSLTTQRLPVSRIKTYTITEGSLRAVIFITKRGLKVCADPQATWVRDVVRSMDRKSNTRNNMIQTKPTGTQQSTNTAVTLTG

CCL27_HUMAN (human) = CCL27_HUMAN (human) (UniProt Q9Y4X3); experiment: BLI, empty cell the 12th table, row 38, column 8
CCL20_HUMAN (human) = CCL20_HUMAN (human) (UniProt P78556); experiment: BLI, empty cell the 12th table, row 30, column 8
CXCL1_HUMAN (human) = CXCL1_HUMAN (human) (UniProt P09341); experiment: BLI, empty cell the 12th table, row 42, column 8
CXCL5_HUMAN (human) = CXCL5_HUMAN (human) (UniProt P42830); experiment: BLI, empty cell the 12th table, row 46, column 8
CXCL14_HUMAN (human) = CXCL14_HUMAN (human) (UniProt O95715); experiment: BLI, empty cell the 12th table, row 55, column 8
CXCL4_HUMAN (human) = CXCL4_HUMAN (human) (UniProt P02776); experiment: BLI, empty cell the 12th table, row 45, column 8
CX3CL1_HUMAN (human) = CX3CL1_HUMAN (human) (UniProt P78423); experiment: BLI, empty cell the 12th table, row 41, column 8
CXCL7_HUMAN (human) = CXCL7_HUMAN (human) (UniProt P02775); experiment: BLI, empty cell the 12th table, row 48, column 8
CXCL9_HUMAN (human) = CXCL9_HUMAN (human) (UniProt Q07325); experiment: BLI, empty cell the 12th table, row 50, column 8
CXCL2_HUMAN (human) = CXCL2_HUMAN (human) (UniProt P19875); experiment: BLI, empty cell the 12th table, row 43, column 8
CXCL11_HUMAN (human) = CXCL11_HUMAN (human) (UniProt O14625); experiment: BLI, empty cell the 12th table, row 52, column 8

Measured: binding

P672_RHIPU (from UniProt L7MC74 22-125)
no binding (tested: 300 nM): CXCL13_HUMAN (human) | CXCL8_HUMAN (human) | CXCL6_HUMAN (human) | CCL21_HUMAN (human) | CCL17_HUMAN (human) | CCL19_HUMAN (human) | CCL28_HUMAN (human) | CCL24_HUMAN (human) | CXCL3_HUMAN (human) | CCL22_HUMAN (human) | CXCL12_HUMAN (human) | CXCL10_HUMAN (human) | XCL1_HUMAN (human) | CCL27_HUMAN (human) | CCL20_HUMAN (human) | CXCL1_HUMAN (human) | CXCL5_HUMAN (human) | CXCL14_HUMAN (human) | CXCL4_HUMAN (human) | CX3CL1_HUMAN (human) | CXCL7_HUMAN (human) | CXCL9_HUMAN (human) | CXCL2_HUMAN (human) | CXCL11_HUMAN (human)
